Test results published in the supplement of paper PMC7661543.
The effect of the compound repeats well; differences between the knockouts mostly do not.

Test system: MDA-MB-231
Assay: relative cell number vs DMSO control (72 h) (% of DMSO); higher = less growth inhibition (more cells)
Protocol: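 QMAP-Seq: a pool of 5 breast cancer cell lines (ZR-75-1, SKBR3, HCC-38, MDA-MB-231, BT-20), each carrying 12 doxycycline-inducible Cas9 sgRNA perturbations (11 knockouts plus non-targeting sgNT), was treated with compounds for 72 h at four 10-fold doses (10 nM-10 uM or 1 nM-1 uM range). Barcodes were amplified and sequenced, and cell number was interpolated from 293T spike-in standard curves. The result is expressed as % of the median of DMSO wells. Two biological replicates.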

O=C(Nc1ccc([N+](=O)[O-])cc1Cl)c1cc(Cl)ccc1O [Niclosamide]
Conditions	relative cell number
sgRNA knockout: sgATF3, 10 nM	99.2
sgRNA knockout: sgATF3, 100 nM	104
sgRNA knockout: sgATF3, 1000 nM	97.5
sgRNA knockout: sgATF3, 10000 nM	38.6
sgRNA knockout: sgATF4, 10 nM	96.9
sgRNA knockout: sgATF4, 100 nM	103
sgRNA knockout: sgATF4, 1000 nM	84.5
sgRNA knockout: sgATF4, 10000 nM	40.4
sgRNA knockout: sgATF6, 10 nM	106
sgRNA knockout: sgATF6, 100 nM	98.1
sgRNA knockout: sgATF6, 1000 nM	112
sgRNA knockout: sgATF6, 10000 nM	45.8
sgRNA knockout: sgATG7, 10 nM	91.9
sgRNA knockout: sgATG7, 100 nM	93.2
sgRNA knockout: sgATG7, 1000 nM	90.7
sgRNA knockout: sgATG7, 10000 nM	43.1
sgRNA knockout: sgERN1, 10 nM	85.4
sgRNA knockout: sgERN1, 100 nM	87.6
sgRNA knockout: sgERN1, 1000 nM	87.4
sgRNA knockout: sgERN1, 10000 nM	36.7
sgRNA knockout: sgHSF1, 10 nM	83.5
sgRNA knockout: sgHSF1, 100 nM	99.4
sgRNA knockout: sgHSF1, 1000 nM	88.6
sgRNA knockout: sgHSF1, 10000 nM	35.8
sgRNA knockout: sgHSF2, 10 nM	85.9
sgRNA knockout: sgHSF2, 100 nM	102
sgRNA knockout: sgHSF2, 1000 nM	93.4
sgRNA knockout: sgHSF2, 10000 nM	43.2
sgRNA knockout: sgKEAP1, 10 nM	94.2
sgRNA knockout: sgKEAP1, 100 nM	101
sgRNA knockout: sgKEAP1, 1000 nM	102
sgRNA knockout: sgKEAP1, 10000 nM	50.3
sgRNA knockout: sgNFE2L2, 10 nM	103
sgRNA knockout: sgNFE2L2, 100 nM	95.1
sgRNA knockout: sgNFE2L2, 1000 nM	107
sgRNA knockout: sgNFE2L2, 10000 nM	38.8
sgRNA knockout: sgSLC35F2, 10 nM	85.6
sgRNA knockout: sgSLC35F2, 100 nM	106
sgRNA knockout: sgSLC35F2, 1000 nM	98.9
sgRNA knockout: sgSLC35F2, 10000 nM	39.8
sgRNA knockout: sgXBP1, 10 nM	111
sgRNA knockout: sgXBP1, 100 nM	90.5
sgRNA knockout: sgXBP1, 1000 nM	92.8
sgRNA knockout: sgXBP1, 10000 nM	39.7

NC(=O)Nc1sc(-c2ccc(F)cc2)cc1C(N)=O [TPCA1]
Conditions	relative cell number
sgRNA knockout: sgATF3, 10 nM	122
sgRNA knockout: sgATF3, 100 nM	92.4
sgRNA knockout: sgATF3, 1000 nM	121
sgRNA knockout: sgATF3, 10000 nM	61
sgRNA knockout: sgATF4, 10 nM	98
sgRNA knockout: sgATF4, 100 nM	120
sgRNA knockout: sgATF4, 1000 nM	145
sgRNA knockout: sgATF4, 10000 nM	79.4
sgRNA knockout: sgATF6, 10 nM	112
sgRNA knockout: sgATF6, 100 nM	86.5
sgRNA knockout: sgATF6, 1000 nM	125
sgRNA knockout: sgATF6, 10000 nM	57.1
sgRNA knockout: sgATG7, 10 nM	94.6
sgRNA knockout: sgATG7, 100 nM	104
sgRNA knockout: sgATG7, 1000 nM	124
sgRNA knockout: sgATG7, 10000 nM	57.9
sgRNA knockout: sgERN1, 10 nM	117
sgRNA knockout: sgERN1, 100 nM	96.2
sgRNA knockout: sgERN1, 1000 nM	132
sgRNA knockout: sgERN1, 10000 nM	52.7
sgRNA knockout: sgHSF1, 10 nM	95.9
sgRNA knockout: sgHSF1, 100 nM	107
sgRNA knockout: sgHSF1, 1000 nM	105
sgRNA knockout: sgHSF1, 10000 nM	58.8
sgRNA knockout: sgHSF2, 10 nM	109
sgRNA knockout: sgHSF2, 100 nM	107
sgRNA knockout: sgHSF2, 1000 nM	114
sgRNA knockout: sgHSF2, 10000 nM	68.1
sgRNA knockout: sgKEAP1, 10 nM	101
sgRNA knockout: sgKEAP1, 100 nM	89.5
sgRNA knockout: sgKEAP1, 1000 nM	109
sgRNA knockout: sgKEAP1, 10000 nM	63.1
sgRNA knockout: sgNFE2L2, 10 nM	105
sgRNA knockout: sgNFE2L2, 100 nM	90.9
sgRNA knockout: sgNFE2L2, 1000 nM	95
sgRNA knockout: sgNFE2L2, 10000 nM	52.9
sgRNA knockout: sgSLC35F2, 10 nM	118
sgRNA knockout: sgSLC35F2, 100 nM	97.8
sgRNA knockout: sgSLC35F2, 1000 nM	115
sgRNA knockout: sgSLC35F2, 10000 nM	64.1
sgRNA knockout: sgXBP1, 10 nM	90.9
sgRNA knockout: sgXBP1, 100 nM	99.7
sgRNA knockout: sgXBP1, 1000 nM	125
sgRNA knockout: sgXBP1, 10000 nM	56.5

CC(C)C[C@H](NC(=O)[C@H](CCc1ccccc1)NC(=O)CN1CCOCC1)C(=O)N[C@@H](Cc1ccccc1)C(=O)N[C@@H](CC(C)C)C(=O)[C@@]1(C)CO1 [Carfilzomib]
Conditions	relative cell number
sgRNA knockout: sgATF3, 1 nM	74.8
sgRNA knockout: sgATF3, 10 nM	71
sgRNA knockout: sgATF3, 100 nM	15.8
sgRNA knockout: sgATF3, 1000 nM	7.54
sgRNA knockout: sgATF4, 1 nM	57.6
sgRNA knockout: sgATF4, 10 nM	44.9
sgRNA knockout: sgATF4, 100 nM	16.9
sgRNA knockout: sgATF4, 1000 nM	8.68
sgRNA knockout: sgATF6, 1 nM	101
sgRNA knockout: sgATF6, 10 nM	73.4
sgRNA knockout: sgATF6, 100 nM	18.2
sgRNA knockout: sgATF6, 1000 nM	5.68
sgRNA knockout: sgATG7, 1 nM	108
sgRNA knockout: sgATG7, 10 nM	52.6
sgRNA knockout: sgATG7, 100 nM	10.5
sgRNA knockout: sgATG7, 1000 nM	9.24
sgRNA knockout: sgERN1, 1 nM	83
sgRNA knockout: sgERN1, 10 nM	58.4
sgRNA knockout: sgERN1, 100 nM	13.2
sgRNA knockout: sgERN1, 1000 nM	5.84
sgRNA knockout: sgHSF1, 1 nM	68.6
sgRNA knockout: sgHSF1, 10 nM	47.9
sgRNA knockout: sgHSF1, 100 nM	14.4
sgRNA knockout: sgHSF1, 1000 nM	5.92
sgRNA knockout: sgHSF2, 1 nM	78.5
sgRNA knockout: sgHSF2, 10 nM	43.2
sgRNA knockout: sgHSF2, 100 nM	12.4
sgRNA knockout: sgHSF2, 1000 nM	6.5
sgRNA knockout: sgKEAP1, 1 nM	73.6
sgRNA knockout: sgKEAP1, 10 nM	67.4
sgRNA knockout: sgKEAP1, 100 nM	16.4
sgRNA knockout: sgKEAP1, 1000 nM	8.63
sgRNA knockout: sgNFE2L2, 1 nM	77.4
sgRNA knockout: sgNFE2L2, 10 nM	45.7
sgRNA knockout: sgNFE2L2, 100 nM	12
sgRNA knockout: sgNFE2L2, 1000 nM	6.44
sgRNA knockout: sgSLC35F2, 1 nM	74.8
sgRNA knockout: sgSLC35F2, 10 nM	55.9
sgRNA knockout: sgSLC35F2, 100 nM	25.3
sgRNA knockout: sgSLC35F2, 1000 nM	18.7
sgRNA knockout: sgXBP1, 1 nM	90.7
sgRNA knockout: sgXBP1, 10 nM	56.6
sgRNA knockout: sgXBP1, 100 nM	11
sgRNA knockout: sgXBP1, 1000 nM	5.85
